Results from the supplement of paper PMC10849652.
The other results are listed elsewhere or left out.

The chains behind the UniProt entries cited, without tags or fusion partners. Where a name states a change or a piece, a line headed by the entry shows the natural chain unless it says otherwise.
UniProt Q6PJI9: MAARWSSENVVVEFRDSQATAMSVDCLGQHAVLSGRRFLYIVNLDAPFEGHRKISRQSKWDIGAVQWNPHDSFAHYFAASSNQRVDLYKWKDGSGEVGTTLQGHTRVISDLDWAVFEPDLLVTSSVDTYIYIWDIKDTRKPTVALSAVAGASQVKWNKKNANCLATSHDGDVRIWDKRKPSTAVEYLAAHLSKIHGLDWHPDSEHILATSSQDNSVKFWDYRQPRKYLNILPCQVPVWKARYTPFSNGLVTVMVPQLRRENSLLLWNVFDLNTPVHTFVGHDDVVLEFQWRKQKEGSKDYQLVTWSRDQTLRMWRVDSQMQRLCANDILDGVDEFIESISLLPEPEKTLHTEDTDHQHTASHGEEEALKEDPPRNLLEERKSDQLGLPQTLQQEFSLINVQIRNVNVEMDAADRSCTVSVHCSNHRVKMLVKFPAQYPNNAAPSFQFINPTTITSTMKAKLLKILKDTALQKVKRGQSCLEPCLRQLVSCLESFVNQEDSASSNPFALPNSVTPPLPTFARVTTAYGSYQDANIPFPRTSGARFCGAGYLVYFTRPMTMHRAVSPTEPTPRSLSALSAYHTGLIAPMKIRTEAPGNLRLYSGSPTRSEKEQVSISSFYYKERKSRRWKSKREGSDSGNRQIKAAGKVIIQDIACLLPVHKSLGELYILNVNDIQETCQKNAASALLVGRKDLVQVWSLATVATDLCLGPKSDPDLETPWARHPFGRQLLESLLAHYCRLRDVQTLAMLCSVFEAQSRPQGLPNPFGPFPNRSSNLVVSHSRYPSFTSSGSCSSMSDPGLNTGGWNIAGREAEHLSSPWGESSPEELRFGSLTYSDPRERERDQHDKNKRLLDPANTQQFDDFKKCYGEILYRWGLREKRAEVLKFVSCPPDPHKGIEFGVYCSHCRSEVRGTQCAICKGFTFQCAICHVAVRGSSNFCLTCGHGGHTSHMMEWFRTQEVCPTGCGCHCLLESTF
UniProt Q96GC9: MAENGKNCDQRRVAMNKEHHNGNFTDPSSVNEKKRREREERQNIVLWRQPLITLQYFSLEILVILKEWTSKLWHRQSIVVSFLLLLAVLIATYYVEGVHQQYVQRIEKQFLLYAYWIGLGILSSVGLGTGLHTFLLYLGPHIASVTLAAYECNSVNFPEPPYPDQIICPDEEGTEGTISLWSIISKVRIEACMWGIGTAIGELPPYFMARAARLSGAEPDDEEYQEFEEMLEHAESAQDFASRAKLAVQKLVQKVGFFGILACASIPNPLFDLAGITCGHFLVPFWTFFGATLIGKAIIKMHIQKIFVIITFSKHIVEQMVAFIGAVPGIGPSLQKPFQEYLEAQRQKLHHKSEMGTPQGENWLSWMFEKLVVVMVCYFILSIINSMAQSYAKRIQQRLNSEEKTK
UniProt Q96S55: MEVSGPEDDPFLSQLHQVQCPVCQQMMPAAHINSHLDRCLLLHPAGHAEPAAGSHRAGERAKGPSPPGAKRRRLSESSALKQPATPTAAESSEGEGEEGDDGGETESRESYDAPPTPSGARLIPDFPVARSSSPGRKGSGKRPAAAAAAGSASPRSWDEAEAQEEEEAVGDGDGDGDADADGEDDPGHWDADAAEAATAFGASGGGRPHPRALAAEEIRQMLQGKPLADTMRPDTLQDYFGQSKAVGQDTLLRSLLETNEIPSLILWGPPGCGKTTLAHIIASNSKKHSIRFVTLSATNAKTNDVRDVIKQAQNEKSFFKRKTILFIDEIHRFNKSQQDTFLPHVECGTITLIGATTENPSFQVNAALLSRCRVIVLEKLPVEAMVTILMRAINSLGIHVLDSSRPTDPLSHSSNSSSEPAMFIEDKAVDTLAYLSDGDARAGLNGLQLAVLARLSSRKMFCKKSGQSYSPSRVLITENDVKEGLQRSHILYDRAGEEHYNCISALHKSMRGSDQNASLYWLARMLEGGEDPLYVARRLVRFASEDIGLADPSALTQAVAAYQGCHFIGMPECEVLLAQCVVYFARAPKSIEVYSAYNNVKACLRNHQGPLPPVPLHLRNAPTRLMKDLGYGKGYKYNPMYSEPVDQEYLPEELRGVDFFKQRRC
UniProt O00401, whole entry, looked up: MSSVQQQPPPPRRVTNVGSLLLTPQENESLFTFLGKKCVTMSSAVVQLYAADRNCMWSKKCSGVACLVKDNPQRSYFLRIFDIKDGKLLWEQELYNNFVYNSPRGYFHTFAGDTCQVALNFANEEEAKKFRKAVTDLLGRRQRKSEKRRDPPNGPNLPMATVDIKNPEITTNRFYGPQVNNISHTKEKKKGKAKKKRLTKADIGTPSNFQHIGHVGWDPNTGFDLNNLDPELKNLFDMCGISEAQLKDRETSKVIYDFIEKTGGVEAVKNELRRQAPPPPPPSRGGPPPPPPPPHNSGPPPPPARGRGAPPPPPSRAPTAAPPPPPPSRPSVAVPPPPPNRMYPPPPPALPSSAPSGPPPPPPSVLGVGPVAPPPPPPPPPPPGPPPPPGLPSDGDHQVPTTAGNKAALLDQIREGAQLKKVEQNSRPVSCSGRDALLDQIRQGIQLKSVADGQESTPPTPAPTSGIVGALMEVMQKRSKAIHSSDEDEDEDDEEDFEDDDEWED
UniProt Q8N9V3: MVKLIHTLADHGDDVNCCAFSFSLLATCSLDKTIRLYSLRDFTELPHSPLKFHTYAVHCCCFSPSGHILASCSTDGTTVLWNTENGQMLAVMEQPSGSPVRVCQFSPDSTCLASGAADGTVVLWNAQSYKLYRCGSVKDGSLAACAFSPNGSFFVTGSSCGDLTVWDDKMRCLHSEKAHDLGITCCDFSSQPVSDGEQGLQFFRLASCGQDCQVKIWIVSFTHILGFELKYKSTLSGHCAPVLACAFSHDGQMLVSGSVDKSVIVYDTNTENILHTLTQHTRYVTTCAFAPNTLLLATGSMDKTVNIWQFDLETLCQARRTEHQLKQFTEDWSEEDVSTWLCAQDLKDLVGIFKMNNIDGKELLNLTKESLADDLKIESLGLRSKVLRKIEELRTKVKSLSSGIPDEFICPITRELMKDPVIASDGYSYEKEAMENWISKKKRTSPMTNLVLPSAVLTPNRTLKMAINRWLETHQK
UniProt O00258: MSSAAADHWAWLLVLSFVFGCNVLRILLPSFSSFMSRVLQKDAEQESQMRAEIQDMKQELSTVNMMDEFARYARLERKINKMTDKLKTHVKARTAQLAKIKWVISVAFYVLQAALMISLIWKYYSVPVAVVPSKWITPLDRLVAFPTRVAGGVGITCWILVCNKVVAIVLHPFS
UniProt Q96J92: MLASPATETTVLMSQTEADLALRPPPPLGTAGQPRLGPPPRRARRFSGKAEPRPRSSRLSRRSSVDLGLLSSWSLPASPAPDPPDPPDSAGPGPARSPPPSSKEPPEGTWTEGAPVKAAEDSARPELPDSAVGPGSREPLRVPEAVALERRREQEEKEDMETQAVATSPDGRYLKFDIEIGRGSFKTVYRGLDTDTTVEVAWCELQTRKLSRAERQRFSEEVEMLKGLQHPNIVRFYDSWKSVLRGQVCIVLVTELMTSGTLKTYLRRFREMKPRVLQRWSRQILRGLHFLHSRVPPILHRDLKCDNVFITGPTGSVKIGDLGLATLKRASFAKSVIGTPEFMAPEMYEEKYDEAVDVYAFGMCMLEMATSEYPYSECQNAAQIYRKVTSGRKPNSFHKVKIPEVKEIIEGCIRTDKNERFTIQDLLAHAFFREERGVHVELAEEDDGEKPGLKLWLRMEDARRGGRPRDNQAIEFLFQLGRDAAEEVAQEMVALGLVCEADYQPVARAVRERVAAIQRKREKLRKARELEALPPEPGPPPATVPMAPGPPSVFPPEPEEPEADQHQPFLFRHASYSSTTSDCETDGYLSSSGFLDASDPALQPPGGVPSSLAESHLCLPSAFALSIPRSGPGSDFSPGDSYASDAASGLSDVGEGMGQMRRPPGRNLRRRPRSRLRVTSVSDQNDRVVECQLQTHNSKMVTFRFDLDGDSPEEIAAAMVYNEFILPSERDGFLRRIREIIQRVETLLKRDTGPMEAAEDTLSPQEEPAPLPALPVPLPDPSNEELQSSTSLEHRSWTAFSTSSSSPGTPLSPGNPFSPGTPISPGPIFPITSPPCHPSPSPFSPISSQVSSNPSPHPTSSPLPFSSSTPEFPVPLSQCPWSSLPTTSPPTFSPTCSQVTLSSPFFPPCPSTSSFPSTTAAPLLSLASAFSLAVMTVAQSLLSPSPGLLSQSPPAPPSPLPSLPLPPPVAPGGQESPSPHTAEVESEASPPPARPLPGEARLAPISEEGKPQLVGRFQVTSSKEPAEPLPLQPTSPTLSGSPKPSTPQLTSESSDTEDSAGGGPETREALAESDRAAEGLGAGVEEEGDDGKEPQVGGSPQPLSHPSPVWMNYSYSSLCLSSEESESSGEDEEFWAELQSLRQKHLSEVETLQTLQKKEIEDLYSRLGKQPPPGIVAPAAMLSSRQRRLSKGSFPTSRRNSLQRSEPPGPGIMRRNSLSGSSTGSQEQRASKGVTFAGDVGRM
UniProt Q86VN1: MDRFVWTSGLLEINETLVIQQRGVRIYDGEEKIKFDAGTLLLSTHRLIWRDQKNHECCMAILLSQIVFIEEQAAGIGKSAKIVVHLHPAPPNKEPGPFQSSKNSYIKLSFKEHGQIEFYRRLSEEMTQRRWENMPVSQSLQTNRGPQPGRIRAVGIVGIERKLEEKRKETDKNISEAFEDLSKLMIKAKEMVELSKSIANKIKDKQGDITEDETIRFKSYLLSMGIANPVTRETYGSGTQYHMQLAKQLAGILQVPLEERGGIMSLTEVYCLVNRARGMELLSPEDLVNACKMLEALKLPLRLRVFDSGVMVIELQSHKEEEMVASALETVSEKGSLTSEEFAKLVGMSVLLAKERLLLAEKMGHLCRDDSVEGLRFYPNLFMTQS
UniProt Q9UGM6: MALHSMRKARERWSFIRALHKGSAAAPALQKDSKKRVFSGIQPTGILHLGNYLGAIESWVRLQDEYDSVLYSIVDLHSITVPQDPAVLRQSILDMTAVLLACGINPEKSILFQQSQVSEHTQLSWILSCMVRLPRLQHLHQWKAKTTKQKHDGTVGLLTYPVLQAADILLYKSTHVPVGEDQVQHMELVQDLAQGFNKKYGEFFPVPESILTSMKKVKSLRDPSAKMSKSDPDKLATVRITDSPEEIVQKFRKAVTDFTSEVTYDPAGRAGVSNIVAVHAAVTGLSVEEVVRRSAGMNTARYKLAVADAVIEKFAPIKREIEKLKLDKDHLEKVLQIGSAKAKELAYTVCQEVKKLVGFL
UniProt Q8NEZ2: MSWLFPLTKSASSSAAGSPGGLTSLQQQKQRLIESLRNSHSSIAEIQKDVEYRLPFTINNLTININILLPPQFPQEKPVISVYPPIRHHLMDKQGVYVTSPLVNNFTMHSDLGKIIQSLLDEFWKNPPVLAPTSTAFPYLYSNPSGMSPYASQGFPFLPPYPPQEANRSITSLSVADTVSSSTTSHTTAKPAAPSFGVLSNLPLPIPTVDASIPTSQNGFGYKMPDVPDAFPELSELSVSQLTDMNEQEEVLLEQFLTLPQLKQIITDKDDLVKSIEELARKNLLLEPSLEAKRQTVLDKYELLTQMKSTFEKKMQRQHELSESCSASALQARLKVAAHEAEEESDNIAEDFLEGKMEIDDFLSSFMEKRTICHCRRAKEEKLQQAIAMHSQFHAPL
UniProt Q5MNZ6: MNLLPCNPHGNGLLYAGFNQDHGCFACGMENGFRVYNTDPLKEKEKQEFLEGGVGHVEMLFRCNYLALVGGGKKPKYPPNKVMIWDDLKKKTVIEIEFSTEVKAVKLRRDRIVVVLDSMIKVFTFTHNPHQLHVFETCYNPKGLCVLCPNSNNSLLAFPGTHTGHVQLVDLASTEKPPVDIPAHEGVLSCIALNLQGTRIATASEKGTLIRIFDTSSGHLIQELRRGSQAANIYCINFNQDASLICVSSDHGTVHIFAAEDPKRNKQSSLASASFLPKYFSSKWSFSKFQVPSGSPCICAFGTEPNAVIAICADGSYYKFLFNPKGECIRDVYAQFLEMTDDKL
UniProt Q9NQW7: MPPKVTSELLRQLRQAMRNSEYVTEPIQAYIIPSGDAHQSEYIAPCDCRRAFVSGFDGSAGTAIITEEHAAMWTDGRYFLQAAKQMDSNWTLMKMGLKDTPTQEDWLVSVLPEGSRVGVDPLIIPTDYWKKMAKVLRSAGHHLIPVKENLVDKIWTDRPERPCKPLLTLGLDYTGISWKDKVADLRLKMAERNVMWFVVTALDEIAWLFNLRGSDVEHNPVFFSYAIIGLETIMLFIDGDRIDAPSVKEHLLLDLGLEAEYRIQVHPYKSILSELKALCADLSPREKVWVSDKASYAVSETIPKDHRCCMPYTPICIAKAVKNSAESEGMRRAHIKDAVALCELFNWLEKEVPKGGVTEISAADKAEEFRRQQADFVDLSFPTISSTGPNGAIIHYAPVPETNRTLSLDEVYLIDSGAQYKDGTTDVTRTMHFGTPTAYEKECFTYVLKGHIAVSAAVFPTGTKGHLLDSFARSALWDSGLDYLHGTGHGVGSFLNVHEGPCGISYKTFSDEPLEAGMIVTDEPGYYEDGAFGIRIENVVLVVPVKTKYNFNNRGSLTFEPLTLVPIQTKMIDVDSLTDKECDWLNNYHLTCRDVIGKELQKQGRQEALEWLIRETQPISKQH

Legend:
Assay in all cases: log2 fold change, soluble protein after heating vs DMSO (PISA); higher = thermal stabilisation; K562 lysate, 10 uM; active = over 0.2 and 3.5 SD of the protein, either way, in both replicates (recomputed)
nilotinib = compound: Cc1cn(-c2cc(NC(=O)c3ccc(C)c(Nc4nccc(-c5cccnc5)n4)c3)cc(C(F)(F)F)c2)cn1 [nilotinib]
In short: (§1)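 Pellets of K562 cells were dounce-homogenised in PBS pH 7.4 with 1 mM MgCl2, and the crude extract was held at 1 mg/mL protein for a 30 min treatment with 10 μM compound. Aliquots were heated for 3 min over 48°C-58°C and pooled before NP-40 was added to 0.5% at 4°C. The supernatant from 21,000xg for 90 min was quantified by TMTpro 16plex LC-MS/MS with channel sums equalised. Values are reported from duplicates as log-two fold change in thermal stability relative to solvent controls.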

[1] = compound: Cc1nc(Nc2n[nH]c3c2CN(C(=O)N[C@H](CN(C)C)c2ccccc2)C3(C)C)c2sccc2n1
In short: as §1

dasatinib = compound: Cc1nc(Nc2ncc(C(=O)Nc3c(C)cccc3Cl)s2)cc(N2CCN(CCO)CC2)n1 [dasatinib]
In short: as §1

[2] = compound: Cc1ncc(-c2ccnc(Nc3ccc(S(C)(=O)=O)cc3)n2)n1C(C)C
In short: as §1

[3] = compound: Cn1cc(-c2ccc3c(c2)CCN3C(=O)Cc2cccc(C(F)(F)F)c2)c2c(N)ncnc21
In short: as §1

quisinostat = compound: Cn1cc(CNCC2CCN(c3ncc(C(=O)NO)cn3)CC2)c2ccccc21 [quisinostat]
In short: as §1

tipifarnib = compound: Cn1cncc1[C@@](N)(c1ccc(Cl)cc1)c1ccc2c(c1)c(-c1cccc(Cl)c1)cc(=O)n2C [tipifarnib]
In short: as §1

[4] = compound: NC(=O)Nc1cc(-c2cccc(F)c2)sc1C(=O)N[C@H]1CCCNC1
In short: as §1

[5] = compound: NC(=O)c1cnc(N[C@@H]2CCCC[C@@H]2N)nc1Nc1cccc(-n2nccn2)c1
In short: as §1

[6] = compound: NC1(c2ccc(-c3nc4ccn5c(=O)[nH]nc5c4cc3-c3ccccc3)cc2)CCC1
In short: as §1

[7] = compound: NCC(=O)Nc1ccc(-n2nc(C(F)(F)F)cc2-c2ccc3c(ccc4ccccc43)c2)cc1
In short: as §1

vorinostat = compound: O=C(CCCCCCC(=O)Nc1ccccc1)NO [vorinostat]
In short: as §1

silmitasertib = compound: O=C(O)c1ccc2c(c1)nc(Nc1cccc(Cl)c1)c1ccncc12 [silmitasertib]
In short: as §1

[8] = compound: O=C1NC(=O)C(c2cnc3ccccn23)=C1c1cn2c3c(cc(F)cc13)CN(C(=O)N1CCCCC1)CC2
In short: as §1

entospletinib = compound: c1cn2cc(-c3ccc4cn[nH]c4c3)nc(Nc3ccc(N4CCOCC4)cc3)c2n1 [entospletinib]
In short: as §1

| Target | log2 fold change (nilotinib) | log2 fold change [1] | log2 fold change (dasatinib) | log2 fold change [2] | log2 fold change [3] | log2 fold change (quisinostat) | log2 fold change (tipifarnib) | log2 fold change [4] | log2 fold change [5] | log2 fold change [6] | log2 fold change [7] | log2 fold change (vorinostat) | log2 fold change (silmitasertib) | log2 fold change [8] | log2 fold change (entospletinib) |
| --- | --- | --- | --- | --- | --- | --- | --- | --- | --- | --- | --- | --- | --- | --- | --- |
| VKORC1 (UniProt Q9BQB6) | inactive: -0.022 | inactive: -0.037 | inactive: -0.046 | inactive: -0.025 | inactive: 0.018 | inactive: -0.052 | inactive: -0.116 | inactive: 0.055 | inactive: 0.047 | inactive: -0.028 | inactive: -0.05 | inactive: 0.04 | inactive: 0.024 | inactive: -0.033 | inactive: -0.053 |
| WDR59 (UniProt Q6PJI9) | inactive: -0.009 | inactive: -0.057 | inactive: -0.001 | inactive: 0.029 | inactive: 0 | inactive: -0.07 | inactive: 0.01 | inactive: 0.061 | inactive: 0.019 | inactive: -0.02 | inactive: -0.098 | inactive: -0.258 | inactive: -0.02 | inactive: 0.019 | inactive: 0.006 |
| WDR5 (UniProt P61964) | inactive: -0.003 | inactive: 0.036 | inactive: -0.02 | inactive: 0.029 | inactive: -0.005 | inactive: -0.024 | inactive: -0.031 | inactive: 0.096 | inactive: -0.027 | inactive: 0.007 | inactive: -0.016 | inactive: 0.029 | inactive: 0.011 | inactive: 0.092 | inactive: 0.077 |
| VMP1 (UniProt Q96GC9) | inactive: 0.001 | inactive: 0.033 | inactive: 0.009 | inactive: -0.02 | inactive: 0.002 | inactive: -0.044 | inactive: -0.001 | inactive: 0.114 | inactive: -0.06 | inactive: -0.08 | inactive: -0.017 | inactive: 0.022 | inactive: -0.023 | inactive: -0.018 | inactive: 0.007 |
| VPS13C (UniProt Q709C8) | inactive: 0.138 | inactive: 0.043 | inactive: -0.011 | inactive: -0.069 | inactive: -0.039 | inactive: -0.034 | inactive: -0.177 | inactive: -0.009 | inactive: -0.028 | inactive: -0.05 | inactive: 0.005 | inactive: 0.062 | inactive: -0.033 | inactive: 0.027 | inactive: -0.051 |
| WRNIP1 (UniProt Q96S55) | inactive: -0.008 | inactive: 0.002 | inactive: -0.018 | inactive: -0.05 | inactive: 0.066 | inactive: -0.035 | inactive: -0.02 | inactive: 0.053 | inactive: -0.008 | inactive: -0.001 | inactive: -0.011 | active: -0.521 | inactive: 0 | inactive: -0.046 | inactive: -0.02 |
| WASL (UniProt O00401) | inactive: -0.055 | inactive: 0.031 | inactive: 0.008 | inactive: -0.008 | inactive: 0.04 | inactive: -0.065 | inactive: 0.121 | inactive: 0.022 | inactive: 0.026 | inactive: -0.008 | inactive: -0.052 | inactive: -0.186 | inactive: -0.079 | inactive: 0.063 | inactive: -0.056 |
| WDSUB1 (UniProt Q8N9V3) | inactive: -0.038 | inactive: -0.024 | inactive: 0.025 | inactive: 0.004 | inactive: 0.014 | inactive: -0.07 | inactive: 0.009 | inactive: 0.012 | inactive: 0.004 | inactive: -0.029 | inactive: 0.001 | inactive: 0.032 | inactive: 0.008 | inactive: -0.019 | inactive: -0.002 |
| WRB (UniProt O00258) | inactive: 0.06 | inactive: -0.017 | inactive: -0.014 | inactive: 0.183 | inactive: 0.082 | inactive: 0.015 | inactive: -0.044 | inactive: -0.005 | inactive: 0.071 | inactive: 0.024 | inactive: 0.082 | inactive: 0.131 | inactive: -0.055 | inactive: -0.012 | inactive: 0.146 |
| WNK4 (UniProt Q96J92) | inactive: 0.039 | inactive: 0.055 | inactive: -0.065 | inactive: 0.005 | inactive: 0.056 | inactive: -0.076 | inactive: 0.059 | inactive: 0.07 | inactive: 0.063 | inactive: -0.038 | inactive: 0.004 | inactive: -0.161 | inactive: 0.099 | inactive: -0.019 | inactive: -0.041 |
| VPS36 (UniProt Q86VN1) | inactive: -0.042 | inactive: 0.015 | inactive: 0.002 | inactive: 0 | inactive: 0.004 | inactive: -0.026 | inactive: 0.052 | inactive: 0.008 | inactive: 0.012 | inactive: -0.005 | inactive: 0.007 | inactive: -0.04 | inactive: 0.026 | inactive: -0.04 | inactive: 0.004 |
| VPS26B (UniProt Q4G0F5) | inactive: 0.042 | inactive: -0.015 | inactive: 0.017 | inactive: -0.011 | inactive: -0.039 | inactive: -0.04 | inactive: 0.077 | inactive: 0.002 | inactive: -0.01 | inactive: 0 | inactive: 0.024 | inactive: 0.029 | inactive: -0.002 | inactive: -0.006 | inactive: 0.008 |
| WARS2 (UniProt Q9UGM6) | inactive: 0.008 | inactive: 0.032 | inactive: -0.029 | inactive: -0.016 | inactive: 0.05 | inactive: -0.012 | inactive: -0.008 | inactive: 0.037 | inactive: -0.013 | inactive: -0.004 | inactive: -0.017 | inactive: 0.079 | inactive: -0.01 | inactive: 0.011 | inactive: 0.023 |
| VPS37A (UniProt Q8NEZ2) | inactive: -0.011 | inactive: -0.009 | inactive: -0.079 | inactive: 0.001 | inactive: 0.069 | inactive: 0.003 | inactive: -0.072 | inactive: -0.001 | inactive: 0.032 | inactive: 0.032 | inactive: -0.004 | inactive: -0.189 | inactive: 0.041 | inactive: -0.036 | inactive: -0.056 |
| WDR45B (UniProt Q5MNZ6) | inactive: 0 | inactive: 0.012 | inactive: 0.071 | inactive: -0.021 | inactive: -0.006 | inactive: 0.008 | inactive: -0.026 | inactive: -0.013 | inactive: -0.013 | inactive: 0.046 | inactive: -0.011 | inactive: 0.012 | inactive: 0.019 | inactive: 0.027 | inactive: 0.014 |
| XPNPEP1 isoform 3 (UniProt Q9NQW7) | inactive: 0.022 | inactive: 0.016 | inactive: -0.049 | inactive: -0.004 | inactive: 0.014 | inactive: 0.024 | inactive: 0.011 | inactive: 0.007 | inactive: -0.005 | inactive: -0.023 | inactive: 0.006 | inactive: -0.068 | inactive: -0.001 | inactive: -0.019 | inactive: 0.002 |
| WDR89 (UniProt Q96FK6) | inactive: -0.073 | inactive: 0.075 | inactive: -0.032 | inactive: 0.062 | inactive: 0.026 | inactive: -0.003 | inactive: 0.033 | inactive: 0.021 | inactive: -0.026 | inactive: -0.087 | inactive: 0.071 | inactive: -0.03 | inactive: 0.024 | inactive: 0.011 | inactive: 0.031 |
| VPS13D (UniProt Q5THJ4) | inactive: -0.03 | inactive: 0.017 | inactive: -0.12 | inactive: -0.052 | inactive: 0.032 | inactive: -0.149 | inactive: -0.175 | inactive: 0.044 | inactive: -0.009 | inactive: -0.012 | inactive: -0.113 | inactive: -0.228 | inactive: -0.02 | inactive: -0.027 | inactive: -0.102 |
| VPS35L (UniProt Q7Z3J2) | inactive: -0.019 | inactive: -0.006 | inactive: -0.088 | inactive: 0.022 | inactive: 0.008 | inactive: -0.046 | inactive: 0.03 | inactive: 0.043 | inactive: 0.001 | inactive: -0.044 | inactive: 0.019 | active: -0.266 | inactive: 0.027 | inactive: -0.006 | inactive: 0.015 |

Random excerpt: 2 records from the list

| Target | log2 fold change (nilotinib) | log2 fold change [1] | log2 fold change (dasatinib) | log2 fold change [2] | log2 fold change [3] | log2 fold change (quisinostat) | log2 fold change (tipifarnib) | log2 fold change [4] | log2 fold change [5] | log2 fold change [6] | log2 fold change [7] | log2 fold change (vorinostat) | log2 fold change (silmitasertib) | log2 fold change [8] | log2 fold change (entospletinib) |
| --- | --- | --- | --- | --- | --- | --- | --- | --- | --- | --- | --- | --- | --- | --- | --- |
| WDR45B (UniProt Q5MNZ6) | inactive: 0 | inactive: 0.012 | inactive: 0.071 | inactive: -0.021 | inactive: -0.006 | inactive: 0.008 | inactive: -0.026 | inactive: -0.013 | inactive: -0.013 | inactive: 0.046 | inactive: -0.011 | inactive: 0.012 | inactive: 0.019 | inactive: 0.027 | inactive: 0.014 |
| WARS2 (UniProt Q9UGM6) | inactive: 0.008 | inactive: 0.032 | inactive: -0.029 | inactive: -0.016 | inactive: 0.05 | inactive: -0.012 | inactive: -0.008 | inactive: 0.037 | inactive: -0.013 | inactive: -0.004 | inactive: -0.017 | inactive: 0.079 | inactive: -0.01 | inactive: 0.011 | inactive: 0.023 |
